Assay results published in US9284543B2, “Neutral active soluble truncated PH20 polypeptides and uses thereof” (Halozyme, Inc., priority 2008, dated 2016).

Tested on: CHO-S cells
Assay: Western blot analysis of PH20 expression in media and cells after transient expression
Assay type: cell-based, Chinese Hamster
Settings: band at approximately 66 kDa
Summary of the method: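 PH20 expression and solubility were judged by anti-PH20 Western blot of non-reduced media and cell fractions, with expression shown by a ~66 kDa band. Samples came from CHO-S cells transiently transfected (GeneJuice) with mutant PH20-HZ24 DNA and cultured 48-72 h. GPI-anchored mutants were cleaved with PI-PLC to release soluble protein.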

Row | Molecule | Protein Expression
1 | SPAM1-EEPQ: C-terminally truncated human PH20, precursor 479 aa (SEQ ID NO:21), mature 444 aa (SEQ ID NO:73) (protein, listed as Homo sapiens, HuPH20 precursor 1-479; Mature HuPH20 36-479) chain 1: MGVLKFKHIFFRSFVKSSGVSQIVFTFLLIPCCLTLNFRAPPVIPNVPFLWAWNAPSEFCLGKFDEPLDMSLFSFIGSPRINATGQGVTIFYVDRLGYYPYIDSITGVTVNGGIPQKISLQDHLDKAKKDITFYMPVDNLGMAVIDWEEWRPTWARNWKPKDVYKNRSIELVQQQNVQLSLTEATEKAKQEFEKAGKDFLVETIKLGKLLRPNHLWGYYLFPDCYNHHYKKPGYNGSCFNVEIKRNDDLSWLWNESTALYPSIYLNTQQSPVAATLYVRNRVREAIRVSKIPDAKSPLPVFAYTRIVFTDQVLKFLSQDELVYTFGETVALGASGIVIWGTLSIMRSMKSCLLLDNYMETILNPYIINVTLAAKMCSQVLCQEQGVCIRKNWNSSDYLHLNPDNFAIQLEKGGKFTVRGKPTLEDLEQFSEKFYCSCYSTLSCKEKADVKDTDAVDVCIADGVCIDAFLKPPMETEEPQ chain 2: MGVLKFKHIFFRSFVKSSGVSQIVFTFLLIPCCLTLNFRAPPVIPNVPFLWAWNAPSEFCLGKFDEPLDMSLFSFIGSPRINATGQGVTIFYVDRLGYYPYIDSITGVTVNGGIPQKISLQDHLDKAKKDITFYMPVDNLGMAVIDWEEWRPTWARNWKPKDVYKNRSIELVQQQNVQLSLTEATEKAKQEFEKAGKDFLVETIKLGKLLRPNHLWGYYLFPDCYNHHYKKPGYNGSCFNVEIKRNDDLSWLWNESTALYPSIYLNTQQSPVAATLYVRNRVREAIRVSKIPDAKSPLPVFAYTRIVFTDQVLKFLSQDELVYTFGETVALGASGIVIWGTLSIMRSMKSCLLLDNYMETILNPYIINVTLAAKMCSQVLCQEQGVCIRKNWNSSDYLHLNPDNFAIQLEKGGKFTVRGKPTLEDLEQFSEKFYCSCYSTLSCKEKADVKDTDAVDVCIADGVCIDAFLKPPMETEEPQ | YES
2 | SPAM1-TEEP: C-terminally truncated human PH20, precursor 478 aa (SEQ ID NO:22), mature 443 aa (SEQ ID NO:74) (protein, listed as Homo sapiens, HuPH20 precursor 1-478; Mature HuPH20 36-478) chain 1: MGVLKFKHIFFRSFVKSSGVSQIVFTFLLIPCCLTLNFRAPPVIPNVPFLWAWNAPSEFCLGKFDEPLDMSLFSFIGSPRINATGQGVTIFYVDRLGYYPYIDSITGVTVNGGIPQKISLQDHLDKAKKDITFYMPVDNLGMAVIDWEEWRPTWARNWKPKDVYKNRSIELVQQQNVQLSLTEATEKAKQEFEKAGKDFLVETIKLGKLLRPNHLWGYYLFPDCYNHHYKKPGYNGSCFNVEIKRNDDLSWLWNESTALYPSIYLNTQQSPVAATLYVRNRVREAIRVSKIPDAKSPLPVFAYTRIVFTDQVLKFLSQDELVYTFGETVALGASGIVIWGTLSIMRSMKSCLLLDNYMETILNPYIINVTLAAKMCSQVLCQEQGVCIRKNWNSSDYLHLNPDNFAIQLEKGGKFTVRGKPTLEDLEQFSEKFYCSCYSTLSCKEKADVKDTDAVDVCIADGVCIDAFLKPPMETEEP chain 2: LNFRAPPVIPNVPFLWAWNAPSEFCLGKFDEPLDMSLFSFIGSPRINATGQGVTIFYVDRLGYYPYIDSITGVTVNGGIPQKISLQDHLDKAKKDITFYMPVDNLGMAVIDWEEWRPTWARNWKPKDVYKNRSIELVQQQNVQLSLTEATEKAKQEFEKAGKDFLVETIKLGKLLRPNHLWGYYLFPDCYNHHYKKPGYNGSCFNVEIKRNDDLSWLWNESTALYPSIYLNTQQSPVAATLYVRNRVREAIRVSKIPDAKSPLPVFAYTRIVFTDQVLKFLSQDELVYTFGETVALGASGIVIWGTLSIMRSMKSCLLLDNYMETILNPYIINVTLAAKMCSQVLCQEQGVCIRKNWNSSDYLHLNPDNFAIQLEKGGKFTVRGKPTLEDLEQFSEKFYCSCYSTLSCKEKADVKDTDAVDVCIADGVCIDAFLKPPMETEEP | YES
3 | SPAM1-ETEE: C-terminally truncated human PH20, precursor 477 aa (SEQ ID NO:23), mature 442 aa (SEQ ID NO:75) (protein, listed as Homo sapiens, HuPH20 precursor 1-477; Mature HuPH20 36-477) chain 1: MGVLKFKHIFFRSFVKSSGVSQIVFTFLLIPCCLTLNFRAPPVIPNVPFLWAWNAPSEFCLGKFDEPLDMSLFSFIGSPRINATGQGVTIFYVDRLGYYPYIDSITGVTVNGGIPQKISLQDHLDKAKKDITFYMPVDNLGMAVIDWEEWRPTWARNWKPKDVYKNRSIELVQQQNVQLSLTEATEKAKQEFEKAGKDFLVETIKLGKLLRPNHLWGYYLFPDCYNHHYKKPGYNGSCFNVEIKRNDDLSWLWNESTALYPSIYLNTQQSPVAATLYVRNRVREAIRVSKIPDAKSPLPVFAYTRIVFTDQVLKFLSQDELVYTFGETVALGASGIVIWGTLSIMRSMKSCLLLDNYMETILNPYIINVTLAAKMCSQVLCQEQGVCIRKNWNSSDYLHLNPDNFAIQLEKGGKFTVRGKPTLEDLEQFSEKFYCSCYSTLSCKEKADVKDTDAVDVCIADGVCIDAFLKPPMETEE chain 2: LNFRAPPVIPNVPFLWAWNAPSEFCLGKFDEPLDMSLFSFIGSPRINATGQGVTIFYVDRLGYYPYIDSITGVTVNGGIPQKISLQDHLDKAKKDITFYMPVDNLGMAVIDWEEWRPTWARNWKPKDVYKNRSIELVQQQNVQLSLTEATEKAKQEFEKAGKDFLVETIKLGKLLRPNHLWGYYLFPDCYNHHYKKPGYNGSCFNVEIKRNDDLSWLWNESTALYPSIYLNTQQSPVAATLYVRNRVREAIRVSKIPDAKSPLPVFAYTRIVFTDQVLKFLSQDELVYTFGETVALGASGIVIWGTLSIMRSMKSCLLLDNYMETILNPYIINVTLAAKMCSQVLCQEQGVCIRKNWNSSDYLHLNPDNFAIQLEKGGKFTVRGKPTLEDLEQFSEKFYCSCYSTLSCKEKADVKDTDAVDVCIADGVCIDAFLKPPMETEE | YES
4 | SPAM1-METE: C-terminally truncated human PH20, precursor 476 aa (SEQ ID NO:24), mature 441 aa (SEQ ID NO:76) (protein, listed as Homo sapiens, HuPH20 precursor 1-476; Mature HuPH20 36-476) chain 1: MGVLKFKHIFFRSFVKSSGVSQIVFTFLLIPCCLTLNFRAPPVIPNVPFLWAWNAPSEFCLGKFDEPLDMSLFSFIGSPRINATGQGVTIFYVDRLGYYPYIDSITGVTVNGGIPQKISLQDHLDKAKKDITFYMPVDNLGMAVIDWEEWRPTWARNWKPKDVYKNRSIELVQQQNVQLSLTEATEKAKQEFEKAGKDFLVETIKLGKLLRPNHLWGYYLFPDCYNHHYKKPGYNGSCFNVEIKRNDDLSWLWNESTALYPSIYLNTQQSPVAATLYVRNRVREAIRVSKIPDAKSPLPVFAYTRIVFTDQVLKFLSQDELVYTFGETVALGASGIVIWGTLSIMRSMKSCLLLDNYMETILNPYIINVTLAAKMCSQVLCQEQGVCIRKNWNSSDYLHLNPDNFAIQLEKGGKFTVRGKPTLEDLEQFSEKFYCSCYSTLSCKEKADVKDTDAVDVCIADGVCIDAFLKPPMETE chain 2: LNFRAPPVIPNVPFLWAWNAPSEFCLGKFDEPLDMSLFSFIGSPRINATGQGVTIFYVDRLGYYPYIDSITGVTVNGGIPQKISLQDHLDKAKKDITFYMPVDNLGMAVIDWEEWRPTWARNWKPKDVYKNRSIELVQQQNVQLSLTEATEKAKQEFEKAGKDFLVETIKLGKLLRPNHLWGYYLFPDCYNHHYKKPGYNGSCFNVEIKRNDDLSWLWNESTALYPSIYLNTQQSPVAATLYVRNRVREAIRVSKIPDAKSPLPVFAYTRIVFTDQVLKFLSQDELVYTFGETVALGASGIVIWGTLSIMRSMKSCLLLDNYMETILNPYIINVTLAAKMCSQVLCQEQGVCIRKNWNSSDYLHLNPDNFAIQLEKGGKFTVRGKPTLEDLEQFSEKFYCSCYSTLSCKEKADVKDTDAVDVCIADGVCIDAFLKPPMETE | YES
5 | SPAM1-PMET: C-terminally truncated human PH20, precursor 475 aa (SEQ ID NO:25), mature 440 aa (SEQ ID NO:77) (protein, listed as Homo sapiens, HuPH20 precursor 1-475; Mature HuPH20 36-475) chain 1: MGVLKFKHIFFRSFVKSSGVSQIVFTFLLIPCCLTLNFRAPPVIPNVPFLWAWNAPSEFCLGKFDEPLDMSLFSFIGSPRINATGQGVTIFYVDRLGYYPYIDSITGVTVNGGIPQKISLQDHLDKAKKDITFYMPVDNLGMAVIDWEEWRPTWARNWKPKDVYKNRSIELVQQQNVQLSLTEATEKAKQEFEKAGKDFLVETIKLGKLLRPNHLWGYYLFPDCYNHHYKKPGYNGSCFNVEIKRNDDLSWLWNESTALYPSIYLNTQQSPVAATLYVRNRVREAIRVSKIPDAKSPLPVFAYTRIVFTDQVLKFLSQDELVYTFGETVALGASGIVIWGTLSIMRSMKSCLLLDNYMETILNPYIINVTLAAKMCSQVLCQEQGVCIRKNWNSSDYLHLNPDNFAIQLEKGGKFTVRGKPTLEDLEQFSEKFYCSCYSTLSCKEKADVKDTDAVDVCIADGVCIDAFLKPPMET chain 2: LNFRAPPVIPNVPFLWAWNAPSEFCLGKFDEPLDMSLFSFIGSPRINATGQGVTIFYVDRLGYYPYIDSITGVTVNGGIPQKISLQDHLDKAKKDITFYMPVDNLGMAVIDWEEWRPTWARNWKPKDVYKNRSIELVQQQNVQLSLTEATEKAKQEFEKAGKDFLVETIKLGKLLRPNHLWGYYLFPDCYNHHYKKPGYNGSCFNVEIKRNDDLSWLWNESTALYPSIYLNTQQSPVAATLYVRNRVREAIRVSKIPDAKSPLPVFAYTRIVFTDQVLKFLSQDELVYTFGETVALGASGIVIWGTLSIMRSMKSCLLLDNYMETILNPYIINVTLAAKMCSQVLCQEQGVCIRKNWNSSDYLHLNPDNFAIQLEKGGKFTVRGKPTLEDLEQFSEKFYCSCYSTLSCKEKADVKDTDAVDVCIADGVCIDAFLKPPMET | YES
